Experiment [1] has as its target T1, Biotin-conjugated PEAR1-ECD domain peptide EMI (human) (UniProt Q5VY43).
T1 sequence (peptide, biotin): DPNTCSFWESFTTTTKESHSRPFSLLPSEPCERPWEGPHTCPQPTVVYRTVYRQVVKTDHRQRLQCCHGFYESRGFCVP
In words: ELISA; biotin-conjugated PEAR1-ECD domain peptides (EMI and EGF-like 1 through EGF-like 15; 10 μg/mL) captured on streptavidin-coated plates; samples 1 hour at 37°C; HRP-conjugated secondary antibodies, TMB, OD 450 nm. (In general: An ELISA detects its analyte on a solid surface through an enzyme-linked reagent.)

Protein sequences, listed by entry. Tags and fused reporters are not part of them. Residues count along the entry.
UniProt Q9Y4K0, residues 26-774: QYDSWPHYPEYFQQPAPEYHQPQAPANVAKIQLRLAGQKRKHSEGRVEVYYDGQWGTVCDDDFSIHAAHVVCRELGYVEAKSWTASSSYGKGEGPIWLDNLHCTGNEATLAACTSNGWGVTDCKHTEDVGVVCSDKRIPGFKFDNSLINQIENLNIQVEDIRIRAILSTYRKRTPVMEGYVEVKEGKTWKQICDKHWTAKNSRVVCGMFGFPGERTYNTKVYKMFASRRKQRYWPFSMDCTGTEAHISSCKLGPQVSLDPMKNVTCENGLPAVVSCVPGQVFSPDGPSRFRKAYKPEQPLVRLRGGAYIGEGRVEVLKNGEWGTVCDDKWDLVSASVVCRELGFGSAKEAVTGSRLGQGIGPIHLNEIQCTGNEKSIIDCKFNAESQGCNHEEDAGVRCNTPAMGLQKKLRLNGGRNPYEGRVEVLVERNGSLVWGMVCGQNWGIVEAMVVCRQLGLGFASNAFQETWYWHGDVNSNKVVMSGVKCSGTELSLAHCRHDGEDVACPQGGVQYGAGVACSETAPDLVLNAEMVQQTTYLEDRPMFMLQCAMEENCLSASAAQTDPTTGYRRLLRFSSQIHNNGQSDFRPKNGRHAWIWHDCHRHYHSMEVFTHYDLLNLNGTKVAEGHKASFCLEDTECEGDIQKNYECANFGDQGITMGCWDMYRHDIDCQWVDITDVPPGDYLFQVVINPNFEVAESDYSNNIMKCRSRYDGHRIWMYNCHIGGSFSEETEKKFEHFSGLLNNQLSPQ

Experiment [2] addresses T2, PEAR1-ECD–His (human) (UniProt Q5VY43).
T2 sequence: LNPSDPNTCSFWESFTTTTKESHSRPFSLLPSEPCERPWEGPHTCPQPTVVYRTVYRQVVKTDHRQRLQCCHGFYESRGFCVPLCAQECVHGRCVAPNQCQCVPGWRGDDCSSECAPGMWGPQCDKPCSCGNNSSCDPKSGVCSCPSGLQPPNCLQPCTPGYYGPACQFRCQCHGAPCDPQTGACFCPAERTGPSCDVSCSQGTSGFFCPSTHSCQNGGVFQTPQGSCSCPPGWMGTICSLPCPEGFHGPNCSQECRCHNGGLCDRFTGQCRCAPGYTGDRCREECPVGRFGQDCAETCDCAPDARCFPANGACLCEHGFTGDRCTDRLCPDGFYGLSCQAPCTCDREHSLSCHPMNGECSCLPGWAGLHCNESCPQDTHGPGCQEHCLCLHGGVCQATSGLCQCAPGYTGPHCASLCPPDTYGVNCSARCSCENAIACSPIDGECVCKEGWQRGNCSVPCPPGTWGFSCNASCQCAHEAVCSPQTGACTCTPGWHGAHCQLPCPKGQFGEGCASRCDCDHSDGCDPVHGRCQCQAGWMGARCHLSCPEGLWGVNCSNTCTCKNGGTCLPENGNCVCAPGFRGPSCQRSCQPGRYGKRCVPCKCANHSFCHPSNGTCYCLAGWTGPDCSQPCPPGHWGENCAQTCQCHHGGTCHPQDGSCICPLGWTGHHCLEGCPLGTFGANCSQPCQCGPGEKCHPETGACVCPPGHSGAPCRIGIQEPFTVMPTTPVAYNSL
In words: pull-down; concentrated serum-free supernatant of MDA-MB-231 cells incubated with 15 μg exogenous PEAR1-ECD–His; Dynabeads His-tag; eluate silver stained, differential bands analysed by MS and Western blotting; only the target purified. On the technique in general: A western blot detects proteins with antibodies after separation by electrophoresis.

Experiment [3] concerns the target T2, PEAR1-ECD–His (human). In words: pull-down; PEAR1-ECD–His with the supernatant of MDA-MB-231 cells, with or without 20 μg/mL simtuzumab; only the target purified.

These are yes or no findings as the source states them, for the method shown. For part of these data: In cells and extracts the contact can be indirect. Some results given as binding are weak or reduced against the parent protein; the word gives no strength. For part of these data: Tags and fused reporters may be left off the sequences shown.

For 2 substances, binding results are on record in publication PMC11324313.

Take “LOXL2 protein, recombinant (full-length LOXL2 protein) (from UniProt Q9Y4K0 26-774) (ligand)”: the binding result in experiment [1] was “binds”. Regarding “Lysyl oxidase–like protein 2 (LOXL2), secreted by MDA-MB-231 cells (from UniProt Q9Y4K0 26-774) (ligand)”, the binding result in experiment [2] and in experiment [3] was “binds” throughout.
